These are yes or no findings as the source states them, for the method shown. In cells and extracts the contact can be indirect. Binding can be weak; no strength is given. Sequences can lack the tags named with a protein.
Columns and labels:
[1] = target: T1, murine CD9 with C-terminal 3xFLAG epitope, transiently expressed in HEK293 (mouse) (UniProt P40240); experiment: co-IP; transient co-expression in HEK293 cells; lysis in IP buffer (50 mM Tris/HCl pH 7.4, 150 mM NaCl, 4 mM EDTA) with 1% Brij-98; 3xFLAG-tagged tetraspanin precipitated with anti-FLAG M2 agarose overnight at 4°C; Western blot
T1 sequence: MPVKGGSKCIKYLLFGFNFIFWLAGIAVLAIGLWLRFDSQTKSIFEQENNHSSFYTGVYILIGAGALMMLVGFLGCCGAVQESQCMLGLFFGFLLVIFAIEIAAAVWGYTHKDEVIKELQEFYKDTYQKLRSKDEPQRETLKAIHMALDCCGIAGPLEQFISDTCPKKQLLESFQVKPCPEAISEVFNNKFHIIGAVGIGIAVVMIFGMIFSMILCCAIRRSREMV

[2] = target: T2, murine CD81 with C-terminal 3xFLAG epitope, transiently expressed in HEK293 (mouse) (UniProt P35762); experiment: as above
T2 sequence: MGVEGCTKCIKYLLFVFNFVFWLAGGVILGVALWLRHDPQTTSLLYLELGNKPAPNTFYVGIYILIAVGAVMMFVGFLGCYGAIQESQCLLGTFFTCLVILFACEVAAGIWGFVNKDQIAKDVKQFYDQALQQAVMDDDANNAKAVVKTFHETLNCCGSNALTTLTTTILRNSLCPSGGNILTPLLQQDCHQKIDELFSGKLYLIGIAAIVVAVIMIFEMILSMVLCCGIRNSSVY

[3] = target: T1, murine CD9 with C-terminal 3xFLAG epitope, transiently expressed in HEK293 (mouse); experiment: co-IP; transient co-expression in HEK293 cells; lysis in IP buffer with 1% Triton X-100; 3xFLAG-tagged tetraspanin precipitated with anti-FLAG M2 agarose; Western blot
[4] = target: T2, murine CD81 with C-terminal 3xFLAG epitope, transiently expressed in HEK293 (mouse); experiment: as above

Measured: binding

N-terminal fragment (NTF) of HA-tagged murine TNF (mouse) (domain or fragment)
binds: all assays above
